Data on three molecules can be found in PMC5473643, “A semisynthetic Atg3 reveals that acetylation promotes Atg3 membrane binding and Atg8 lipidation” (Nature Communications, 2017).

Assay [1] has as its target T1, His6-Atg8 (bacterially expressed and purified) (yeast) (UniProt P38182).
T1 sequence: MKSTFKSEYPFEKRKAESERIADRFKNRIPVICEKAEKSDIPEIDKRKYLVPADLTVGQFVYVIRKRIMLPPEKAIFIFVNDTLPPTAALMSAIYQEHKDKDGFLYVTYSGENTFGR
Description: pull-down; purified His6-Atg8 incubated with Atg3 WT or semi-synthetic Atg3 K19ac-K48ac in Tris-HCl buffer, 25 °C, 1 h; Ni-NTA resin; washed with 0.1% Tween-20; eluted with 250 mM imidazole; Coomassie staining; both purified.

In assay [2] the target is T2, His6-Atg3 WT (bacterially expressed) (Saccharomyces cerevisiae) (UniProt P40344).
T2 sequence: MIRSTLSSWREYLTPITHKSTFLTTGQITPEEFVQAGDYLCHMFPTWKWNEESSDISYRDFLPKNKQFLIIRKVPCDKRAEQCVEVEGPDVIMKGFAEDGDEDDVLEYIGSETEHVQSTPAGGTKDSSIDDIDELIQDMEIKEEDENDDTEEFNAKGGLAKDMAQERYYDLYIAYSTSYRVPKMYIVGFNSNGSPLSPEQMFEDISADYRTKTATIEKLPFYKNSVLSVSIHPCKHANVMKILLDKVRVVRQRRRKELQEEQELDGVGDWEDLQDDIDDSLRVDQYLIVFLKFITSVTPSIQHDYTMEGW
Description: pull-down; His6-Atg3 WT or semi-synthetic His6-Atg3 K19ac-K48ac incubated with bacterially expressed and purified Atg8; bound proteins detected by Coomassie staining; both purified.

Assay [3] deals with T3, semi-synthetic His6-Atg3 K19ac-K48ac (Saccharomyces cerevisiae) (UniProt P40344).
T3 sequence (chain, acetyl-lysine at K19 and K48): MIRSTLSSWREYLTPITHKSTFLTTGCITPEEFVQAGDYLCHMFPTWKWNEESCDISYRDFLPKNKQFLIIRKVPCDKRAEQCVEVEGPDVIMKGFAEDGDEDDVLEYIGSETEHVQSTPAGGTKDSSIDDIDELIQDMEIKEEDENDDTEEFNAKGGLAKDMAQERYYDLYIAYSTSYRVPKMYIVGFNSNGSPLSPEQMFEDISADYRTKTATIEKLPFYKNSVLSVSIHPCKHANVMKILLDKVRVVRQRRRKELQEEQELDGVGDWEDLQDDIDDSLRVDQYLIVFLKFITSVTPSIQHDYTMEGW
The assay is described as above.

These are yes or no findings as the source states them, for the method shown. Some binding calls cover weakened binding; strength is not graded here. Where a sequence is shown, tags or fusion partners need not be part of it.

B1: WT Atg3 (bacterially expressed and purified) (enzyme, UniProt P40344 1-310)
chain: MIRSTLSSWREYLTPITHKSTFLTTGQITPEEFVQAGDYLCHMFPTWKWNEESSDISYRDFLPKNKQFLIIRKVPCDKRAEQCVEVEGPDVIMKGFAEDGDEDDVLEYIGSETEHVQSTPAGGTKDSSIDDIDELIQDMEIKEEDENDDTEEFNAKGGLAKDMAQERYYDLYIAYSTSYRVPKMYIVGFNSNGSPLSPEQMFEDISADYRTKTATIEKLPFYKNSVLSVSIHPCKHANVMKILLDKVRVVRQRRRKELQEEQELDGVGDWEDLQDDIDDSLRVDQYLIVFLKFITSVTPSIQHDYTMEGW
B1: the binding result in assay [1] was “binds”.

B2: semi-synthetic Atg3 K19ac-K48ac (enzyme, UniProt P40344 1-310)
chain: MIRSTLSSWREYLTPITHKSTFLTTGCITPEEFVQAGDYLCHMFPTWKWNEESCDISYRDFLPKNKQFLIIRKVPCDKRAEQCVEVEGPDVIMKGFAEDGDEDDVLEYIGSETEHVQSTPAGGTKDSSIDDIDELIQDMEIKEEDENDDTEEFNAKGGLAKDMAQERYYDLYIAYSTSYRVPKMYIVGFNSNGSPLSPEQMFEDISADYRTKTATIEKLPFYKNSVLSVSIHPCKHANVMKILLDKVRVVRQRRRKELQEEQELDGVGDWEDLQDDIDDSLRVDQYLIVFLKFITSVTPSIQHDYTMEGW
modifications: acetyl-lysine at K19 and K48
As for B2, in assay [1], the binding entry was “binds”.

B3: Atg8 (bacterially expressed and purified) (natural protein, yeast, UniProt P38182 1-117, looked up)
chain: MKSTFKSEYPFEKRKAESERIADRFKNRIPVICEKAEKSDIPEIDKRKYLVPADLTVGQFVYVIRKRIMLPPEKAIFIFVNDTLPPTAALMSAIYQEHKDKDGFLYVTYSGENTFGR
notes: Atg8 of yeast; 'the region coding ; Atg8' inserted into pGEX-6P-1; In the MST experiment this Atg8 was labelled on primary amines with Dye NT-647 NHS; also called recombinant Atg8; purified Atg8; source: E. coli BL21 (DE3), purified (glutathione-Sepharose 4B, PreScission protease, Mono Q, Superdex 200)
On to B3, for which the binding result in assay [2] and in assay [3] was “binds” in each case.
